Reference: paper PMC10878691
Results are given in words; binding and its absence hold for the method and conditions named. Binding seen in cells or lysates may run through a third protein. Some binding calls cover weakened binding; strength is not graded here.

Amino acid sequences for entries named in this document (tags omitted).
UniProt P08047: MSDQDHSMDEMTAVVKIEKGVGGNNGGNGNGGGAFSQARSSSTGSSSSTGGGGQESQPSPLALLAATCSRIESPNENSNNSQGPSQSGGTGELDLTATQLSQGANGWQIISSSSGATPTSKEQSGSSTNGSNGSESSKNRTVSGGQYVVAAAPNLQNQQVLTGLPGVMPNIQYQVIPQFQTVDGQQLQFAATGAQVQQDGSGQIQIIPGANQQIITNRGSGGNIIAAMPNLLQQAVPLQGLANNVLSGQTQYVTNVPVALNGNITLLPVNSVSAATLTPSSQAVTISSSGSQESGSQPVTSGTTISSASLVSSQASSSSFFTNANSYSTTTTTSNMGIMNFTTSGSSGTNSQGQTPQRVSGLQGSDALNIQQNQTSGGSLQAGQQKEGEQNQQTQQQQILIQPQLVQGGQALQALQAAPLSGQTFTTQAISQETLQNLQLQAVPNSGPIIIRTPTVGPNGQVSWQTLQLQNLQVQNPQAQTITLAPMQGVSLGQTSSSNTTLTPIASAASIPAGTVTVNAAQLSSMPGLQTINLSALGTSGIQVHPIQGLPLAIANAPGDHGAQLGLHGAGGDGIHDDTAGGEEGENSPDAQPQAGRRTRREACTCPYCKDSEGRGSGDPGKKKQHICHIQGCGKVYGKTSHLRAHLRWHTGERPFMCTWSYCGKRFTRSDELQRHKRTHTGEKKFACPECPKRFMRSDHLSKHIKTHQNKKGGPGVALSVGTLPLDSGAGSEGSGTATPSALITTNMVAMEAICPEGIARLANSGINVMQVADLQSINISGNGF

Target: T1, HNF4α (human (endogenous in HPAEpiCs)) (UniProt P41235)
T1 sequence: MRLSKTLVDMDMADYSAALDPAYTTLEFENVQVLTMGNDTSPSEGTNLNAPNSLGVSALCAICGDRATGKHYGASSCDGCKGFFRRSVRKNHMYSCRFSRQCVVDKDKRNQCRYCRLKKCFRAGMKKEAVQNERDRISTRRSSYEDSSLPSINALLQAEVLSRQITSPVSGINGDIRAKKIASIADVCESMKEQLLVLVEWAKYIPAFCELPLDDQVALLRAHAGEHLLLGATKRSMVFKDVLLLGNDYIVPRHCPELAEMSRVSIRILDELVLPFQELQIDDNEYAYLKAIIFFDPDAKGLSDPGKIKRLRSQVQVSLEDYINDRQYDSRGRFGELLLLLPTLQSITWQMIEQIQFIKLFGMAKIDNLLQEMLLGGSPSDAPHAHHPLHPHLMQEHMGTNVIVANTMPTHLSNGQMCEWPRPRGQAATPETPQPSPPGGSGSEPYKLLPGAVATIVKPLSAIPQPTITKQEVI
Experiment: co-IP; HPAEpiCs lysed on ice in cell lysis buffer; supernatant incubated with anti-HNF4α antibodies overnight, then Protein A Agarose for 4 hr at 4 °C, washed three times, immunoblotting after elution

## SP1 (from UniProt P08047 1-785)
  binding: binds
